The target of the test is HSV-1 glycoprotein D purified from HSV-1-infected BHK cells (herpes simplex virus 1) (UniProt Q69091). Put plainly: ELISA, gD immobilized (16 nM coating), detection with anti-human IgG-peroxidase. In general terms: ELISA stands for enzyme-linked immunosorbent assay.

Chains of the proteins cited; added tags and fusions are not shown. Residues count along the entry.
UniProt Q69091, residues 26-394: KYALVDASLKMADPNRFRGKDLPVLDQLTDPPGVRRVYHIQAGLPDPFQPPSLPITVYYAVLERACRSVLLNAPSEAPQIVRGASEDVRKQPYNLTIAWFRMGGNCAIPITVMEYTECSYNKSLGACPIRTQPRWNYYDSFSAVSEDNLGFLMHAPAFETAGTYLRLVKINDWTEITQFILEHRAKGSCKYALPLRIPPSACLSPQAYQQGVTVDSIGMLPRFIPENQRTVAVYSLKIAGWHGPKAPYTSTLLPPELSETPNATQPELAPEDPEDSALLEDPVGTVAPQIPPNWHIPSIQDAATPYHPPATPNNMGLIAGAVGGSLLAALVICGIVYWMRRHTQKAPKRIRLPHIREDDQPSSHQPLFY

These are yes or no findings as the source states them, for the method shown. Some results given as binding are weak or reduced against the parent protein; the word gives no strength. Where a sequence is shown, tags or fusion partners need not be part of it.

Results on one molecule are retold here after US6469155 (UNIVERSITA DEGLI STUDI DI BOLOGNA, dated 2002).

B1: sV(HIgR)-Fc (Fc fusion)
chain: QVVQVNDSMYGFIGTDVVLHCSFANPLPSVKITQVTWQKSTNGSKQNVAIYNPSMGVSVLAPYRERVEFLRPSFTDGTIRLSRLELEDEGVYICGFATFPTGNRESQLNLTVMA
notes: Made in COS1 cells and purified on protein A; also called V1-Fc; soluble V domain of HIgR/PRR1; not shown: IgG Fc (Fc portion of human IgG1) from the Cos Fc Link (CFL) vector
On to B1, for which the binding entry is “binds”.
